Earlier results as cited in patent publication US20010056582A1, “PAIRED MUTATIONS” (priority 1997, published 2001).
Where a name gives a salt, the structure may show the parent alone. No dose or concentration is given here for some results.

Test system: post-cell stages of spermatogenesis (male germ cells)
Settings: mouse, in vivo; cited from earlier work

| Structure (SMILES) | Period of maximum effect days [days] |
| --- | --- |
| C=CC(N)=O [AA, acrylamide monomer] | 8 to 14 |

Same assay, conditions: postexposure; at the listed exposure (mg/kg); cited from earlier work

| Structure (SMILES) | Period of maximum effect days [days] |
| --- | --- |
| O=P1(N(CCCl)CCCl)NCCCO1 (centres unmarked) [Cp, cyclophosphamide] | 1 to 14 |
| CCN(N=O)C(N)=O [ENU, N-ethyl-N-nitrosourea] | 32 to 38 |
| CCOS(C)(=O)=O [EtMs, ethyl methanesulforate] | 5 to 12 |
| CCOS(=O)(=O)OCC [Et2SO4, diethyl sulfate] | 5 to 12 |
| O=C(O)CCCc1ccc(N(CCCl)CCCl)cc1 [Chl, chlorambucil] | 15 to 21 |
| CN(N=O)C(N)=O [MNU, N-methyl N-nitrosourea] | 36 to 42 |
| COS(C)(=O)=O [MeMs, methyl methanesulforate] | 5 to 12 |
